# Assay results taken from patent US20210101945A1 (University of Washington, published 2021).
# No constants are given. Whether binding was seen depends on the method and setting. Some entries that bind do so weakly or less than the wild type.
# How the values were obtained:
# Experiment in all cases: in vitro oligomeric state (SEC-MALS, FIG. 5G); homotrimer
# 2L6HC3_AXAX = molecular target: 2L6HC3_AXAX
# 2L6HC3_AXBX = molecular target: 2L6HC3_AXBX
# 2L6HC3_AXXB = molecular target: 2L6HC3_AXXB
# 2L6HC3_XAAA = molecular target: 2L6HC3_XAAA
# 2L6HC3_XBXA = molecular target: 2L6HC3_XBXA
binder,measurement,setting,value
2L6HC3_AXAX (designed binder) GTKYEIREALKEAQKQLEDLKRMLDELRRNLEELKRNPSEDALVENNELIVRVLEVIVENNRSIIEILKLLAKSD,binding,2L6HC3_AXAX,binds
2L6HC3_AXBX (designed binder) GTKYKIREMLEEAKRSLEELRRILEKLKESLRELRRNPSEDALVNNNEVIVKAIEASVENQRIIIELARMLAESD,binding,2L6HC3_AXBX,binds
2L6HC3_AXXB (designed binder) GTKYRIKDTLRELKRALEELKKILEELQRSLEELRRNPSEDALVNNNEVIVKAIEAAVRAIEISAENQRMLAESD,binding,2L6HC3_AXXB,binds
2L6HC3_XAAA (designed binder) GTKYEARKQLEEMKKQLKDLKRSLERLREILERLEENPSEDVIVEAIRAIVENNKQIVENNRSIIENNETIIRSD,binding,2L6HC3_XAAA,binds
2L6HC3_XBXA (designed binder) GTKYELRRQLEELEKLLRELRKSLDELRKILEELERNPSEDVIVRAIKASVKNQEIIVEVLRAIIENNKTIAKSD,binding,2L6HC3_XBXA,binds
